Data taken from article PMC9398908, “GLP-1-mediated delivery of tesaglitazar improves obesity and glucose metabolism in male mice” (Nature Metabolism, 2022).
Where “and” joins values, the source holds several entries; their conditions need not be identical. Equal entries are not always repeated.

System: C57BL6/J DIO mice
Test: Pancreatic islet histology: islet size and insulin, glucagon, somatostatin signal intensity (Extended Data Fig. 2i–m)
Format: in vivo, mouse
Conditions: Extended Data Fig. 2k; 49-wk old male DIO mice, 14 days daily s.c. 50 nmol/kg; individual mice, n = 3

CCO[C@@H](Cc1ccc(OCCc2ccc(OS(C)(=O)=O)cc2)cc1)C(=O)O [tesaglitazar, (S)-2-ethoxy-3-(4-(4-((methylsulfonyl)oxy)phenethoxy)phenyl) propanoic acid]
signal intensity Insulin (per islet area): 27.00 and 23.52 and 32.22
